Reference: PMC10284602
Results are given in words; binding and its absence hold for the method and conditions named. Binding seen in cells or lysates may run through a third protein. Some entries that bind do so weakly or less than the wild type.

Protein sequences, listed by entry. Tags and fused reporters are not part of them.
UniProt Q15691: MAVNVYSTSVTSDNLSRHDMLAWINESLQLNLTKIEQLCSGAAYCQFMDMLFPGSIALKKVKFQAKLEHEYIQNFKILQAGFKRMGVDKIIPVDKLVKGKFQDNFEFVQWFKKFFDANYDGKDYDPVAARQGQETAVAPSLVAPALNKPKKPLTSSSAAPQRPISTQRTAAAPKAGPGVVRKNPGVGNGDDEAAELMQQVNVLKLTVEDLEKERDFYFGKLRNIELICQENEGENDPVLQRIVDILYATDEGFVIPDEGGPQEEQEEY

What was measured:
GST-EB1 (human) = GST-EB1 (human) (UniProt Q15691); test: pull-down; purified GST-EB1 or GST-EB3 on Glutathione Sepharose beads as bait, mixed with brain lysate of TEN2-HA knock-in mice at 4 °C for 1 hr; 20 mM Hepes, 150 mM NaCl, 0.5% TritonX-100, pH 7.4; Western blot for HA; GST as control; only the target purified
GST-EB3 (human) = GST-EB3 (human) (UniProt Q9UPY8); test: as above

binding (GST-EB1 (human)): binds | binding (GST-EB3 (human)): binds
Substance: Teneurin-2 with a 3×HA tag knocked in just before the stop codon (TEN2-HA) (from UniProt Q9WTS5 1-2764)
